Laboratory results published in PubChem BioAssay (NCATS).
Inconclusive means that the source gave no clear call. Such entries were picked first, then a sample of the others. Potencies beside an inconclusive call are fits to weak or partial responses and may not hold up. Active and inactive are the calls of the source. Calls follow the shape of the dose curve; as a rule, active = well fitted cell-killing curve with a large enough effect; inconclusive = small, poorly fitted or top-dose-only effect, or effect the other way; inactive = flat fitted curve, though single readings scatter.

test: qHTS of pediatric cancer cell lines to identify multiple opportunities for drug repurposing: Confirmatory screen for control Hh wild type fibroblast cells (AID 1347121); conditions: viability qHTS; series mostly up to 45.9 µM; also: nearly all actives have a fitted effect of over 70% in size
Summary of the method: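 Cells (500-1,000/well) in growth media were settled 5 h at 37 degrees C, then given compounds for 48 h. Viability was read as CellTiter-Glo luminescence. Primary runs used MIPE at 11 points (0.78 nM-46 µM) and NPC at 8 points (0.59 nM-46 µM); follow-ups used 11 points.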
Potency is read from the fitted curve at half-maximal effect.

Row | SMILES | Potency
1 | CNC(=O)c1cc(Oc2ccc(NC(=O)Nc3ccc(Cl)c(C(F)(F)F)c3)cc2)ccn1 | inconclusive: 32.9 µM [cytotoxic, single point]
2 | C=CC(=O)N1CCc2ccc(-n3c(=O)ccc4cnc5ccc(-c6cnn(C)c6)cc5c43)cc21 | inconclusive: 9.27 µM [cytotoxic, full curve, poor fit]
3 | COc1ccc2c(c1OC)C(=O)OC2[C@H]1c2c(cc3c(c2OC)OCO3)CCN1C (some centres not stated) | inactive
4 | CC1(C)OC2CC3C4CC(F)C5=CC(=O)C=CC5(C)C4C(O)CC3(C)[C@]2(C(=O)CO)O1 (some centres not stated) | inactive
5 | COc1cc2c(cc1OC)[C@@H]1C(=O)c3ccc4c(c3O[C@@H]1CO2)C=CC(C)(C)O4 | active: 0.293 µM
6 | CC(C)(C)c1cc(NC(=O)Nc2ccc(-c3cn4c(n3)sc3cc(OCCN5CCOCC5)ccc34)cc2)no1 | inconclusive: 26.1 µM [cytotoxic, single point]
7 | Nc1nc(F)nc2c1ncn2[C@@H]1O[C@H](CO)[C@@H](O)[C@@H]1O | inconclusive: 0.261 µM [cytotoxic, full curve]
8 | COc1ccc(-c2ccc3ncc4c(c3c2)n(-c2ccc(N3CCNCC3)c(C(F)(F)F)c2)c(=O)n4C)cn1 | active: 10.4 µM
9 | Cc1[nH]nc2ccc(-c3cncc(OC[C@@H](N)Cc4ccccc4)c3)cc12 | active: 23.3 µM
10 | O=C(CC12CC3CC(CC(C3)C1)C2)Nc1cccc2nc(NCCNCCO)ccc12 | inactive
11 | N#Cc1c(NC(=O)c2cccc3ccccc23)sc2c1CCCC2 | inactive
12 | CC(C)[C@H](C(=O)Nc1ccc(C(=O)NO)cc1)c1ccccc1 | inconclusive: 5.85 µM [cytotoxic, full curve]

Three entries already listed, arranged by formula weight, low to high:
Row | SMILES | Potency
7 | Nc1nc(F)nc2c1ncn2[C@@H]1O[C@H](CO)[C@@H](O)[C@@H]1O | inconclusive: 0.261 µM [cytotoxic, full curve]
3 | COc1ccc2c(c1OC)C(=O)OC2[C@H]1c2c(cc3c(c2OC)OCO3)CCN1C (some centres not stated) | inactive
4 | CC1(C)OC2CC3C4CC(F)C5=CC(=O)C=CC5(C)C4C(O)CC3(C)[C@]2(C(=O)CO)O1 (some centres not stated) | inactive
